Values from PubChem BioAssay AID1159578 (Peter MacCallum Cancer Centre, 2015)

Assay: 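siRNA pools altering how lymphatic endothelial cells close a scratch wound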 (primary screen)
Cell system: human lymphatic endothelial cells
Reagents: siRNA pool against human genes, 40 nM
Duration: 48 h after transfection
Measured: 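High-content imaging of dye-stained cells in a scratch assay measures filled wound area and nuclei per well; duplicate means given as ratio to mock and robust z-score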
Scale: migration robust z-score: higher = faster migration into the scratch; nuclei per well: higher = more cells in the well
Rule for the call: 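Pools averaging fewer than 3300 nuclei are never called; remaining pools count as changed when migration robust z lies outside -2 to 2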
Meaning of the calls: active = migration changed; inactive = no migration change, or too few cells
Shown is an unselected part of about 18,000 reagents. In the full data, about 1,030 (5.7%) were called active. 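Inactive calls also include pools with fewer than 3300 nuclei, whose migration was not assessed.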 Raw values are not corrected between plates. A number with no mark means an inactive call. The numbers tell different reagents against one gene apart. Further read-outs or replicates are left out here. Reagent sequences are not shown.

migration robust z-score | nuclei per well, duplicate mean | target | reagent no.
-0.3 | 4985 | POPDC2 | 1
-1.4 | 5730 | GARIN3 | 1
-0.13 | 6514 | LATS2 | 1
-1.5 | 5652 | OR1D2 | 1
-0.42 | 4863 | AHSA1 | 1
-0.44 | 5279 | DLGAP1 | 1
0.03 | 6382 | DMXL1 | 1
-0.76 | 4228 | MBD2 | 1
0.26 | 5773 | ZNF296 | 1
1.11 | 6020 | WASF1 | 1
-1.53 | 5140 | PTK7 | 1
0.64 | 6340 | RSPO2 | 1
-0.24 | 5719 | CENPA | 1
0.64 | 4779 | SKIC2 | 1
0.42 | 6646 | PPP1R14A | 1
1.19 | 5804 | PAOX | 1
-0.21 | 5667 | MEST | 1
0.16 | 5880 | OR52N5 | 1
0.1 | 640 | HSD17B11 | 1
0.23 | 6142 | ZFP30 | 1
1.23 | 5224 | KIAA0319L | 1
0.32 | 6630 | ZC3HAV1L | 1
0.65 | 6308 | MECOM | 1
0.34 | 5838 | MECOM | 2
-0.1 | 5646 | PNPT1 | 1
-0.1 | 5141 | CH25H | 1
0.24 | 4710 | GRIN2A | 1
1.71 | 5860 | TNFSF10 | 1
1.74 | 5578 | CYP4Z1 | 1
1.35 | 6218 | LY96 | 1
-0.24 | 5939 | EBLN2 | 1

8 neighbouring entries from above, for reference:
migration robust z-score | nuclei per well, duplicate mean | target | reagent no.
-0.76 | 4228 | MBD2 | 1
0.26 | 5773 | ZNF296 | 1
1.11 | 6020 | WASF1 | 1
-1.53 | 5140 | PTK7 | 1
0.64 | 6340 | RSPO2 | 1
-0.24 | 5719 | CENPA | 1
0.64 | 4779 | SKIC2 | 1
0.42 | 6646 | PPP1R14A | 1

The results go on:
migration robust z-score | nuclei per well, duplicate mean | target | reagent no.
-0.8 | 6248 | LINC01587 | 1
-0.52 | 5732 | AIFM1 | 1
-0.44 | 5936 | ATP5MG | 1
0.07 | 5748 | HCFC1R1 | 1
1.81 | 6060 | SIRPD | 1
0.85 | 5982 | GOLIM4 | 1
0.55 | 6022 | HSD3B1 | 1
0.65 | 7631 | ADAMTSL5 | 1
-1.15 | 4858 | COL19A1 | 1
0.34 | 5559 | LCE1C | 1
0.89 | 6118 | EMB | 1
-0.73 | 5231 | REPIN1 | 1
-0.54 | 4381 | SOCS3 | 1
-0.05 | 4576 | ANOS1 | 1
-2.17 (active) | 5004 | CD276 | 1
-0.22 | 3633 | KRTAP13-2 | 1
-0.68 | 4462 | LRATD2 | 1
0.04 | 3938 | TMEM134 | 1
1.37 | 6058 | RPS9 | 1
0.6 | 6163 | CNOT4 | 1
-0.01 | 6390 | THOC7 | 1
0 | 4774 | TMCO4 | 1
-0.77 | 5616 | OR2D2 | 1
-0.7 | 6166 | ATG14 | 1
1.48 | 4734 | CAB39L | 1
-0.45 | 6641 | CDKAL1 | 1
1.83 | 7296 | HNRNPUL2 | 1
-2.21 (active) | 3779 | UGT3A1 | 1
1.38 | 5865 | TREML4 | 1
0.83 | 5188 | ITK | 1
-1.12 | 6260 | MPL | 1
2.48 (active) | 5686 | CD274 | 1
-0.25 | 7002 | LRRC37A2 | 1
-1.15 | 3748 | MAST2 | 1
0.76 | 7438 | HSD17B6 | 1
1.12 | 5412 | BACE2 | 1
0.88 | 6024 | PKN1 | 1
-0.35 | 4484 | SLC10A3 | 1
0.7 | 4874 | CKS2 | 1
-0.74 | 5664 | CCDC184 | 1
0.66 | 6631 | ATP5MJ | 1
0.44 | 3979 | ANXA4 | 1
